The list shows a part of the results, in another mix than the full data. For some assays here: At the low end of the ranking the order means little. Some of the results follow. For some assays here: The source does not settle which construct or isoform was used.

For one test, the target named is T1, ERG (UniProt P11308).
T1 sequence: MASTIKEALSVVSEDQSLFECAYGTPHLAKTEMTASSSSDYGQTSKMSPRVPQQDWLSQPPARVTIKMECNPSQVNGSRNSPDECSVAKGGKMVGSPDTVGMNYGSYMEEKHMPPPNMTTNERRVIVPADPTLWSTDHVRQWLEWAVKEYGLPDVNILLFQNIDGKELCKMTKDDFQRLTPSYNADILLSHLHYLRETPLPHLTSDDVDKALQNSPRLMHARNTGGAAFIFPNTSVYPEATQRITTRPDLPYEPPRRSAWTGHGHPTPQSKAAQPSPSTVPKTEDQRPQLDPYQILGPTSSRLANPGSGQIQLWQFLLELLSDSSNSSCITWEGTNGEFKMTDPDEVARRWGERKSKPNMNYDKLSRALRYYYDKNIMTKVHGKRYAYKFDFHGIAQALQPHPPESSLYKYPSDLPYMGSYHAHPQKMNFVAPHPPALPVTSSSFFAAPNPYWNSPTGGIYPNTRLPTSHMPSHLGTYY
The experiment in a line: DAPPL (digital affinity profiling via proximity ligation, sequencing). The settings on record: 10 mM Tris-HCl pH 7.5, 50 mM NaCl, 1 mM DTT, 4% glycerol, room temperature, 30 min; GST-TFs on glutathione beads, 16-mer random dsDNA library, 0.1% …; high values mean tight binding; double strand, one strand shown; scale: fold enrichment (6-mer frequency, TF over GST control).
ATTAAC returned a binding signal of 1.21.

ACCACG: the binding signal turned out to be 1.06.

In turn, CAACTC had a binding signal of 1.28.

In turn, TGCAAG had a binding signal of 0.955.

Regarding ATCTTA, the binding signal stood at 1.09.

As for CGAATT, the binding signal was found to be 1.23.

CCCCAC returned a binding signal of 1.2.

Sequence TAATCG yielded a binding signal of 0.975.

In turn, ATTACA registered a binding signal of 1.12.

Consider TGTGCC, for which the binding signal was 1.17.

Consider GCACGA, for which the binding signal was determined as 1.02.

In turn, GCTAGC displayed a binding signal of 1.22.

As to CTGGTC, the binding signal amounted to 1.2.

In the case of CCTCAG, the binding signal stood at 1.21.

Take TTTGTT: the binding signal came out at 1.28.

For the sequence TTGTTT, the binding signal amounted to 1.6.

TTCGAT yielded a binding signal of 1.43.

Sequence CTGCTG registered a binding signal of 1.11.

TAAAGC returned a binding signal of 0.997.

CCGTTT gave a binding signal of 1.57.

As for TCACCG, the binding signal came out at 1.14.

In turn, TGAATG had a binding signal of 1.21.

The sequence CTTTAG yielded a binding signal of 1.12.

The sequence CACGTA had a binding signal of 1.1.

TCTGGT displayed a binding signal of 1.33.

The sequence AAATGC gave a binding signal of 1.3.

In turn, CCCTAG came in with a binding signal of 0.96.

TCTGAA: the binding signal was 1.15.

In turn, AAAACC registered a binding signal of 1.13.

In the case of CTCATC, the binding signal amounted to 1.34.

Sequence AATTCG gave a binding signal of 1.3.

Regarding TAGGTC, the binding signal was found to be 1.03.

In turn, GCAATG had a binding signal of 1.

CTTGAA had a binding signal of 1.12.

Sequence AGTGGC yielded a binding signal of 1.28.

For the sequence GCTTGG, the binding signal turned out to be 1.09.

For CCCGTA, the binding signal is 1.2.

As for CTAGAT, the binding signal worked out at 1.12.

CTACTA: the binding signal was 1.24.

On to GCCTCT, for which the binding signal was 1.35.

A further test has as its target T2, ETV4 (UniProt P43268).
T2 sequence: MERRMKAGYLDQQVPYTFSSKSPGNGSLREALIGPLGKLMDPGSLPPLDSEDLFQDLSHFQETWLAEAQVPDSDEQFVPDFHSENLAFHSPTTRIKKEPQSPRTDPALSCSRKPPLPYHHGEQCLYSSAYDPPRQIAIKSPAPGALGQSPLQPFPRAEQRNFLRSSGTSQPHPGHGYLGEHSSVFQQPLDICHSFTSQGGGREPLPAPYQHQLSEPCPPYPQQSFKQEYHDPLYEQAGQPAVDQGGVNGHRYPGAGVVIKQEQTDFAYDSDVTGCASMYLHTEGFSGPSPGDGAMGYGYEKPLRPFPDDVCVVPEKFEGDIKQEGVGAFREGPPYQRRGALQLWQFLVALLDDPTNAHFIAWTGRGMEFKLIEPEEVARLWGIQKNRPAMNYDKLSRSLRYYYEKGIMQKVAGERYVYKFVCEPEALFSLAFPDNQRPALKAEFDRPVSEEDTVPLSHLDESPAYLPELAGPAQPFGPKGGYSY
The test is described as above. Conditions: 10 mM Tris-HCl pH 7.5, 50 mM NaCl, 1 mM DTT, 4% glycerol, room temperature, 30 min; GST-TFs on glutathione beads, 16-mer random dsDNA library, 0.1% …; high values mean tight binding; double strand, one strand shown; scale: fold enrichment (6-mer frequency, TF over GST control).
ATTAAC registered a binding signal of 1.29.

As for ACCACG, the binding signal worked out at 1.06.

CAACTC registered a binding signal of 1.27.

TGCAAG showed a binding signal of 1.04.

As to ATCTTA, the binding signal is 1.05.

Sequence CGAATT registered a binding signal of 1.23.

In turn, CCCCAC came in with a binding signal of 1.27.

The sequence TAATCG registered a binding signal of 1.08.

For the sequence ATTACA, the binding signal was 1.14.

The sequence TGTGCC showed a binding signal of 1.13.

In turn, GCACGA came in with a binding signal of 1.07.

GCTAGC: the binding signal amounted to 1.32.

CTGGTC showed a binding signal of 1.15.

CCTCAG registered a binding signal of 1.32.

TTTGTT came in with a binding signal of 1.35.

Turning to TTGTTT, the binding signal came out at 1.52.

Consider TTCGAT, for which the binding signal stood at 1.34.

Take CTGCTG: the binding signal stood at 1.42.

TAAAGC: the binding signal worked out at 1.01.

In turn, CCGTTT showed a binding signal of 1.43.

Sequence TCACCG registered a binding signal of 1.21.

Consider TGAATG, for which the binding signal was 1.14.

Sequence CTTTAG yielded a binding signal of 1.2.

CACGTA registered a binding signal of 1.23.

TCTGGT: the binding signal came out at 1.32.

AAATGC registered a binding signal of 1.21.

As to CCCTAG, the binding signal stood at 1.06.

TCTGAA returned a binding signal of 1.25.

Sequence AAAACC displayed a binding signal of 1.15.

Take CTCATC: the binding signal worked out at 1.44.

AATTCG: the binding signal is 1.18.

Regarding TAGGTC, the binding signal turned out to be 0.956.

GCAATG registered a binding signal of 0.998.

CTTGAA came in with a binding signal of 1.18.

Regarding AGTGGC, the binding signal is 1.33.

On to GCTTGG, for which the binding signal is 1.13.

With CCCGTA, the binding signal stood at 1.14.

CTAGAT: the binding signal came to 1.15.

Turning to CTACTA, the binding signal is 1.21.

On to GCCTCT, for which the binding signal stood at 1.42.

The values are drawn from PMC7862700.
